Our source for the AC50 values is PubChem BioAssay AID493014 (National Center for Advancing Translational Sciences (NCATS), 2011).

This test can be described thus: qHTS Assay to Find Inhibitors of Chronic Active B-Cell Receptor Signaling. Particulars: ABC-DLBCL IkBa-CBG/CBR reporter, luminescence ratio (green luciferase fused to IkBa over red control in TMD8 lymphoma cells), 4 h. In a few lines: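 TMD8 ABC-DLBCL cells carrying doxycycline-inducible green luciferase fused to IkappaBalpha plus unfused red luciferase were exposed to compounds (up to 46 uM) for 4 hrs at 37C. Activity came from the overlap-corrected green/red luminescence ratio.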

The mark [1] stands for this setting: measured here: CBR red luminescence, cell number.
The mark [2] stands for this setting: measured here: IkBa-CBG green luminescence.

Several values for one entry are separate records, joined by “and”; a condition that tells them apart may be missing. Identical values can stand only once. Some of the results follow. Further columns of the screen follow, without active or inactive calls. Most of these compounds were active or inconclusive in the main read-out, so they are no random draw. Potencies come from curve fits of mixed quality, noted in brackets.

Regarding `c1ccc(CN=C2Nc3ccccc3CS2)nc1`, the AC50 – broadly, the midpoint of the concentration-response curve, whichever way the signal moves – under setting [1] was 25.1 µM [falling, single point].
With `O=C(NCCc1nc2ccccc2[nH]1)c1ccc(Cl)c([N+](=O)[O-])c1`, under setting [1], the AC50 was 18.4 µM [falling, single point].
For `COCCN1Cc2cccc(C(=O)Nc3ccc(S(=O)(=O)N4CCCCCC4)cc3)c2C1=O`, under setting [1], the AC50 is 15.8 µM [rising, single point].
On to `O=C(Nc1nnc(-c2ccc(Br)cc2)o1)c1ccco1`, for which the concentration at half-maximal activity (AC50) under setting [1] was 20.6 µM [falling, partial curve].
Same read-out and setting: to `O=C(CSc1nc2[nH]ncc2c(=O)[nH]1)Nc1ccccc1` belongs 7.08 µM [falling, partial curve].
For `Cc1ccc(C2(COC(=O)C(C)C)CO2)c(OC(=O)C(C)C)c1` (stereo unspecified), under setting [2], the concentration at half-maximal activity (AC50) is 28.2 µM [falling, partial curve, poor fit].
In the case of `CCN(CC)CCN(C(=O)c1ccc(C(C)=O)cc1)c1nc2ccc(Cl)cc2s1`, the concentration at half-maximal activity (AC50) under setting [1] was 35.5 µM [falling, single point].
With `COC(=O)Nc1ccc2c(c1)N(C(=O)CCN1CCN3CCCC3C1)c1ccccc1CC2` (stereo unspecified), the AC50 under setting [1] was 17.8 µM [falling, single point].
Same read-out and setting: then `COc1ccc(Nc2ccc([N+](=O)[O-])cn2)cc1`, with 2.51 µM [rising, full curve, poor fit]; and `O=C(Nc1cccnc1)c1ccc(NC(=O)c2ccco2)cc1`, with 25.9 µM [rising, single point]; and `Cc1nnc(SCC(=O)Nc2nsc(-c3ccc(Cl)cc3)n2)s1`, with 13 µM [rising, partial curve, poor fit].
On to `Cc1ccc(-n2nc3c(=O)n(CCCC(=O)NCc4ccc(C)o4)nc(C)c3c2C)cc1`, for which the half-maximal activity concentration (AC50) under setting [1] was 22.4 µM [falling, partial curve, poor fit].
On the same count and under the same terms, then `O=C(CNC(=O)c1cccc(F)c1)N/N=C/c1ccc(O)c([N+](=O)[O-])c1`, with 2.06 µM [falling, partial curve]; and `CCC(C)c1ccccc1N1CC(C(=O)Nc2ccc(S(=O)(=O)N3CCOCC3)cc2)CC1=O` (stereo unspecified), with 3.66 µM [falling, single point].
Consider `Cc1ccc(N/N=C(\Cc2nc3ccccc3[nH]2)c2ccccc2)cc1`, for which the AC50 under setting [2] was 29.1 µM [falling, partial curve, poor fit].
`CCOC(=O)c1c(NC(=O)COC(=O)c2ccc(O)cc2)sc(C(=O)N(C)C)c1C`: under setting [1], the AC50 is 5.01 µM [falling, partial curve, poor fit].
Still for that read-out and setting: then `COC(=O)C1=C(C)NC(=O)CC1c1ccc(F)c(Br)c1` (stereo unspecified), with 29.1 µM [rising, single point]; and `CC(C)CC(C)c1cc(N)nc2nc3ccccc3n12` (stereo unspecified), with 35.5 µM [falling, single point].
Turning to `O=C1OCCN1C(=O)[C@H]1[C@H](c2ccc([N+](=O)[O-])cc2)C(c2cccc(Cl)c2)=NN1c1ccc(Br)cc1`, the AC50 under setting [1] is 23.1 µM [rising, partial curve, poor fit].
Same read-out and setting: then `O=C(Nc1cc(C(F)(F)F)ccc1-n1cnc2ccccc21)c1ccccc1`, with 16.4 µM [falling, partial curve, poor fit]; and `O=C(Oc1cccc(C(=S)N2CCOCC2)c1)c1cc([N+](=O)[O-])cc([N+](=O)[O-])c1`, with 6.31 µM [falling, single point]; and `CCOC(=O)Cc1csc(NC(=O)CCCN2C(=O)c3ccccc3C2=O)n1`, with 1.84 µM [falling, full curve, poor fit].
On the same count and under the same terms, to `CCS(=O)(=O)c1ccc2oc(Nc3ccccc3C)nc2c1` belongs 11.2 µM [rising, partial curve].
`COc1ccc(/C=C/C(=O)Nc2cc(S(=O)(=O)N3CCOCC3)ccc2OC)cc1`: the concentration at half-maximal activity (AC50) is 29.1 µM [falling, single point] under setting [1] and 23.1 µM [falling, partial curve, poor fit] under setting [2].
For `CC(=O)c1ccc(OCC(=O)N(C)CC(=O)Nc2ccc(N3CCOCC3)cc2)cc1`, the half-maximal activity concentration (AC50) under setting [1] was 29.1 µM [rising, single point].
As to `CCOc1ccc(NC(=O)NC2CCCc3ccccc32)cc1` (stereo unspecified), the AC50 under setting [1] is 2 µM [falling, partial curve, poor fit].
On to `COC(=O)c1cc(C(=O)OCC(=O)N(C)C2CCS(=O)(=O)C2)cc([N+](=O)[O-])c1` (stereo unspecified), for which, under setting [1], the AC50 is 15.8 µM [falling, single point].
With `O=[N+]([O-])c1ccc(OCCCOc2cccc3cccnc23)cc1`, under setting [1], the AC50 was 35.5 µM [rising, single point].
For `CCc1ccc(C2=NN(CCC(=O)NCCc3ccc(OC)c(OC)c3)C(=O)CC2)cc1`, under setting [1], the AC50 is 5.62 µM [rising, single point].
`CCOC(=O)CN(C)Cc1cn(C)nc1-c1ccc(Oc2ccccc2)cc1`: the AC50 under setting [1] is 6.31 µM [rising, single point].
In the case of `COc1ccc(Cc2nc(-c3ccc(NC(=O)c4cccnc4)cc3)no2)cc1`, the concentration at half-maximal activity (AC50) under setting [1] is 0.92 µM [rising, full curve].
The same measure, in the same setting: to `O=C(C1CCN(S(=O)(=O)c2cccc3cccnc23)CC1)N1CCc2ccccc21` belongs 7.08 µM [rising, full curve, poor fit].
For `CCc1ccccc1NC(=O)CCOc1ccccc1`, the AC50 under setting [1] was 4.47 µM [falling, partial curve] and 501 nM [falling, partial curve, poor fit].
As to `O=C(Nc1ccc(Cc2ccncc2)cc1)c1cccs1`, under setting [1], the AC50 was 3.98 µM [rising, partial curve, poor fit].
Take `COc1ccccc1CNS(=O)(=O)c1ccc(-c2cnc(C3CC3)o2)cc1`: the AC50 under setting [1] is 22.4 µM [rising, single point] and the concentration at half-maximal activity (AC50) under setting [2] is 12.6 µM [falling, partial curve].
Consider `Cc1ccc(C)c(/C=N/NC(=S)NCCc2ccccc2)c1`, for which, under setting [1], the AC50 is 23.1 µM [rising, single point].
Same read-out and setting: then `Cc1ccc2c(c1)C(C)(C)[C@]1(C)NC(=O)CCN21`, with 17.8 µM [rising, single point].
For the compound `COc1ccnc(Oc2ccccc2)c1C(=O)N/C=N/OCc1ccc(F)cc1Cl`, the AC50 under setting [1] is 35.5 µM [falling, single point].
The same measure, in the same setting: then `CCOC(=O)c1sc(NC(=O)c2ccc(OC(C)=O)cc2)nc1C`, with 0.316 µM [falling, full curve].
